These are yes or no findings as the source states them, for the method shown. In cells and extracts the contact can be indirect. Some binding calls cover weakened binding; strength is not graded here.
Biological target: metastasis associated 1 (MTA1) (human) (UniProt Q13330)
Test: co-IP; co-immunoprecipitation of MTA1, HDAC1 and HDAC2 (Figure S4D); cells, bait and antibody not told in the main text

Amino acid sequences for entries named in this document (tags omitted).
UniProt Q13330: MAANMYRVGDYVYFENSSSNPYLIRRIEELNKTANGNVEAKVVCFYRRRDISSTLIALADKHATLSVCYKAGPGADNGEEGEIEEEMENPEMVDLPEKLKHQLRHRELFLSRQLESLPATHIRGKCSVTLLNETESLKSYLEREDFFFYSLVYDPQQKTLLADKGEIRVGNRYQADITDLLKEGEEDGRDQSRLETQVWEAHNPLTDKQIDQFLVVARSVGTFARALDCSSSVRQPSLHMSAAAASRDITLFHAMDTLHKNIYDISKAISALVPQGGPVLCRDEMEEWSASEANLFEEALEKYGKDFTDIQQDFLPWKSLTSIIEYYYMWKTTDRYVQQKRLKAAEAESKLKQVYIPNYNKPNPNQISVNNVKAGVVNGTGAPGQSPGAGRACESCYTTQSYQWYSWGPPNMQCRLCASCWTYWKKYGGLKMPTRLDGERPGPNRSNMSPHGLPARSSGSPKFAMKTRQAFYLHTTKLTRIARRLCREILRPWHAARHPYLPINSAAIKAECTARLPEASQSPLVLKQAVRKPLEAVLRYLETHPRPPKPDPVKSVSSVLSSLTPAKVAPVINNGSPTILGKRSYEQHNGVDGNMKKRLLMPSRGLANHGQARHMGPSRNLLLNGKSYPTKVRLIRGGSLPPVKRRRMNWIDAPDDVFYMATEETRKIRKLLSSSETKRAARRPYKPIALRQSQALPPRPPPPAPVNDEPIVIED
UniProt Q92769: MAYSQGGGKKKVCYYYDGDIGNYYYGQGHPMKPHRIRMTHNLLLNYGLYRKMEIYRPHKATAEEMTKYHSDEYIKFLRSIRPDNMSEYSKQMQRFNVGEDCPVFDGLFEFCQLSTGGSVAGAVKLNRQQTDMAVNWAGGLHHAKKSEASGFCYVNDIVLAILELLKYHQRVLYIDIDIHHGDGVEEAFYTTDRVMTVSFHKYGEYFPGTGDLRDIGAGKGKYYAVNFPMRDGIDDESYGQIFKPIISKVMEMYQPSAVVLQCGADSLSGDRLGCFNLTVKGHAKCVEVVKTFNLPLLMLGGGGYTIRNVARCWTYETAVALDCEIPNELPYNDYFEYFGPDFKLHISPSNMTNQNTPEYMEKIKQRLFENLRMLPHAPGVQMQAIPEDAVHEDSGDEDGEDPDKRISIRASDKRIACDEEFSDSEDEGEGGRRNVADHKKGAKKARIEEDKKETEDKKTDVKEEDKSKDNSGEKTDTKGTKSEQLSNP
UniProt Q13547: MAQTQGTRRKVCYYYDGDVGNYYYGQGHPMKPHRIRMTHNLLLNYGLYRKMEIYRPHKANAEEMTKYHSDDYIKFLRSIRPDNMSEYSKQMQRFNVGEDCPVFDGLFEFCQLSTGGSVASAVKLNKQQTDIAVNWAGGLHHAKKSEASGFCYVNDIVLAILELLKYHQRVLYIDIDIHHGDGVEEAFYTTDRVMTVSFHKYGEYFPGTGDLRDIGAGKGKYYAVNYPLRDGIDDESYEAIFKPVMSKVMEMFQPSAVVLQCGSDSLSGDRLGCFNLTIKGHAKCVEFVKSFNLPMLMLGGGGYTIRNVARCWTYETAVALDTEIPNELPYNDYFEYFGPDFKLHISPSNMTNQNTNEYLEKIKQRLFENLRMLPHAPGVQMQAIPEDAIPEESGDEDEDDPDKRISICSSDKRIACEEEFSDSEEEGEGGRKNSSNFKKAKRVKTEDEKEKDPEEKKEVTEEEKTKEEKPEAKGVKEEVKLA

binding	Substance
binds	HDAC2 (from UniProt Q92769 1-488) (enzyme)
binds	histone deacetylase 1 (HDAC1) (from UniProt Q13547 1-482) (enzyme)

Source: paper PMC11200093
